About 18,000 (4.4%) of roughly 410,000 compounds were called active. The inconclusive results got no clear call from the source; some entries with a clear call stand among them for comparison. Cut-off read from the data, not from the text of the source: active = activity change below about -60%; inconclusive = no clear call, values can overlap the other calls; inactive = above about -39%.
Test: qHTS Assay for inhibitors of the human cytomegalovirus (HCMV)
Details: HFF cells, HCMV-luciferase reporter, 72 h; at 57.5 µM; hits give low values
Method in brief: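 HFF cells seeded 16 h at 37C, treated with compounds, infected with luciferase-reporter HCMV at MOI 1 PFU/cell; luciferase read at 72 h post infection, normalized to buffer-only and Salinomycin controls.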
% is set by controls: 0 for no effect and ±100 for the full control effect.

| Compound | activity change, negative = inhibition |
| --- | --- |
| CCOc1ccc(NC(c2ccccc2)P(=O)(OC)OC)cc1 (stereo not drawn) | inactive: 18% |
| COc1ccc(Br)cc1CNC(=O)CSc1n[nH]c(-c2ccccc2)n1 | inconclusive: -53.4% |
| c1ccc(Oc2nc(-c3ccccn3)nc3ccccc23)cc1 | inconclusive: -52% |
| Cc1ccc(S(=O)(=O)N2CCOCC2)cc1NC(=O)Cn1nc(C)c([N+](=O)[O-])c1C | inconclusive: -42.6% |
| Cc1c(OC(C)C(=O)NCc2ccncc2)ccc2c3c(c(=O)oc12)CCCC3 (stereo not drawn) | inconclusive: -49.6% |
| Cc1nn(Cc2ccccc2)c(Cl)c1C(=O)OCc1nnc(-c2ccc(Cl)cc2)o1 | inactive: 13.8% |
| CN(C)CCNC(=O)/C(=C/c1ccc(-c2ccc(Cl)cc2Cl)o1)NC(=O)c1ccccc1 | inconclusive: -58.9% |
| COc1ccc(/C=C/C(=O)N(Cc2ccccc2)c2ccccn2)cc1OC | inconclusive: -48.9% |
| S=C(NCCc1ccccc1)Nc1ccc(Cl)cc1 | active: -79% |
| CCOC(=O)c1c(NC(=O)CSc2nnc(-c3c[nH]c4ccccc34)n2CCOC)sc2c1CCCC2 | inconclusive: -54.5% |
| CC(C)(C)OC(=O)N(Cc1ccccc1)Cc1cccc(OCc2cccc(NC(=O)C3CC3)c2)c1 | inconclusive: -46.8% |
| COc1ccc(/C=N/N2CCN(c3ccccc3OC)CC2)cc1Br | inactive: 37.3% |
| Cc1cc([N+](=O)[O-])ccc1NC(=O)c1cncc(Br)c1 | inconclusive: -59.5% |
| CN1C(=O)/C(=C/c2ccc(OCc3ccccc3F)cc2)N(C)C1=S | inactive: 2.16% |
| Cc1cc(C)cc(N(CC(=O)Nc2ccc(C)cc2Cl)S(=O)(=O)c2c(C)[nH]c(=O)[nH]c2=O)c1 | inconclusive: -45% |
| CC(OC(=O)Cc1c[nH]c2ccccc12)C(=O)c1ccccc1 (stereo not drawn) | inactive: 20.8% |
| CC(CCc1ccccc1)NC(=O)COC(=O)c1ccc(F)cc1 (stereo not drawn) | inconclusive: -43.6% |
| O=C(Cn1cc(C(=O)C(F)(F)F)c2ccccc21)N1CCOCC1 | inconclusive: -42.9% |
| CCOc1ccc(-c2c(C)sc3nc[nH]c(=O)c23)cc1 | inconclusive: -49% |
| Cn1nnnc1NCc1cccc(Cl)c1 | inactive: 34.7% |
| CC1CCN(S(=O)(=O)c2ccc3c(c2)oc(=O)n3CC(=O)N2CCCCC2)CC1 | inactive: 5.01% |
| Cc1onc(-c2ccccc2)c1C(=O)N1CCOC12CCN(c1cccc(F)n1)CC2 | inconclusive: -42.5% |

An excerpt of these results, with each value named.
CCOc1ccc(NC(c2ccccc2)P(=O)(OC)OC)cc1 (stereo not drawn)
  activity change, negative = inhibition: inactive: 18%
CN1C(=O)/C(=C/c2ccc(OCc3ccccc3F)cc2)N(C)C1=S
  activity change, negative = inhibition: inactive: 2.16%
CC1CCN(S(=O)(=O)c2ccc3c(c2)oc(=O)n3CC(=O)N2CCCCC2)CC1
  activity change, negative = inhibition: inactive: 5.01%

(further entries)

| Compound | activity change, negative = inhibition |
| --- | --- |
| CCc1nnc(NC(=O)c2ccc(S(=O)(=O)N3CCCCC3)cc2)s1 | active: -66.4% |
| CCN(CC)c1ccc(/C=N/Nc2nc3ccccc3[nH]2)c(O)c1 | active: -98.2% |
| S=C1Nc2ccccc2CS1 | inactive: 20.4% |
| O=C1Nc2ccc(Br)cc2/C1=C/C(=O)c1ccccc1 | inconclusive: -42.7% |
| COc1ccc(Cc2c(C3CCCCC3)nc3ccc(Cl)cn23)c(C)c1 | inactive: -19.3% |
| CC1CCCCC1NC(=O)CCNS(=O)(=O)c1cc(Br)cnc1N (stereo not drawn) | inconclusive: -41.8% |
| NS(=O)(=O)c1cccc(NC(=O)COC(=O)CNC(=O)c2ccc(-c3ccccc3)cc2)c1 | inactive: -17.3% |
| Clc1ccc(-c2c[nH]c3ccccc23)nn1 | inconclusive: -43.5% |
| CCN(Cc1ccccc1)S(=O)(=O)c1ccc(C(=O)Nc2nnc(C3CC3)o2)cc1 | inconclusive: -51.5% |
| O=C(Nc1ccccc1)N1CCc2scc[n+]2-c2ccccc21 | active: -66.6% |
| Cc1cc(C)n(CC(=O)NNC(=O)c2cccc(C(F)(F)F)c2)n1 | inconclusive: -42% |
| Cc1ccc(C(=O)N2CCCC(CCC(=O)N3CCN(c4ccccn4)CC3)C2)s1 (stereo not drawn) | inconclusive: -44.4% |
| Cc1ccc(N(CC(=O)NC(C)C)C(=O)CCC(=O)Nc2nccs2)cc1C | inconclusive: -49.1% |
| Cc1cc(C)c(NC(=S)NC(NC(=O)c2ccccc2)C(Cl)(Cl)Cl)c(C)c1 (stereo not drawn) | inconclusive: -40.4% |
| c1ccc(-c2onc3c2CCCC3)cc1 | inconclusive: -43.6% |
| CC(C)c1ccc(NC2CCCN(C(=O)c3ccco3)C2)cc1 (stereo not drawn) | inconclusive: -40.5% |
| COc1ccc(C)cc1NS(=O)(=O)c1cc(Br)cc2c1N(C(C)=O)C(C)C2 (stereo not drawn) | inconclusive: -49.8% |
| Cc1nc2ccc(NC(=O)COc3ccccc3[N+](=O)[O-])cc2s1 | inconclusive: -40.5% |
| N#CCCN1CCN(S(=O)(=O)c2ccc(S(=O)(=O)N3CCCCCC3)cc2)CC1 | inactive: 9.84% |
| Cn1c(=O)c2c(nc(CN3CCCCC3)n2CCCc2ccccc2)n(C)c1=O | inconclusive: -51.8% |
| CCOC(=O)CN1NC2(CCC(C)CC2)NC1=S (stereo not drawn) | inconclusive: -50.2% |

From PubChem BioAssay AID1259415 (National Center for Advancing Translational Sciences (NCATS), 2018)
